Measurements reported in article PMC11071220, “Identification and characterization of a new potent inhibitor targeting CtBP1/BARS in melanoma cells” (Journal of Experimental & Clinical Cancer Research : CR, 2024).
No constants are given. Whether binding was seen depends on the method and setting. Some results given as binding are weak or reduced against the parent protein; the word gives no strength. For some of these results: Tags and fused reporters may be left off the sequences shown. One block for each molecule: values may come before it.

Legend:
[1] = target: His-CtBP1/BARS^wt (C-terminal-binding protein 1/brefeldin A ADP-ribosylation substrate) (UniProt Q9Z2F5); assay: pull-down; histidine pull-down on Ni-NTA agarose: equimolar His-CtBP1/BARS and GST-CtBP1/BARS, 4 °C; pre-incubation with DMSO, Comp.11 (5, 15, 25 µM), 100 µM NAD+ or 100 µM acyl-CoA; 50 mM Tris-HCl pH 8.0, 150 mM NaCl, 20 mM imidazole, 0.2% Triton X-100; blot with anti-GST and anti-His; both purified
[2] = target: GST-E1A (adenovirus (serotype not given)) (UniProt P03255); assay: pull-down; both purified
GST–14–3-3γ = target: T1, GST–14–3-3γ (UniProt P61981); assay: pull-down; both purified
T1 sequence: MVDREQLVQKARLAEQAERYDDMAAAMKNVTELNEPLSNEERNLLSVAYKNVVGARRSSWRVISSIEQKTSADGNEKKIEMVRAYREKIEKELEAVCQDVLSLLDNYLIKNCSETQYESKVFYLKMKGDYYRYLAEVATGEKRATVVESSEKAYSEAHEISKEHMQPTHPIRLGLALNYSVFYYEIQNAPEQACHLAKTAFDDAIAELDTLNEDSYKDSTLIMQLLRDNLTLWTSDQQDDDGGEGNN

[3] = target: His-CtBP1/BARS^wt (C-terminal-binding protein 1/brefeldin A ADP-ribosylation substrate) (UniProt Q9Z2F5); assay: pull-down; histidine pull-down on Ni-NTA agarose: His-CtBP1/BARS (5 µg) pre-incubated with DMSO, Comp.11, 100 µM NAD+ or 100 µM acyl-CoA, then equimolar immunopurified LPAATδ-Flag, 2 h, 4 °C; His incubation buffer; blot with anti-Flag and anti-His; both purified

binding [1]: binds
Molecule: GST-CtBP1/BARS (from UniProt Q9Z2F5 1-430)

Molecule: His-CtBP1/BARS^wt (C-terminal-binding protein 1/brefeldin A ADP-ribosylation substrate) (from UniProt Q9Z2F5 1-430)
binding [2]: binds
binding (GST–14–3-3γ): binds

binding [3]: binds
B1: Flag-LPAATδ (lysophosphatidic acid acyltransferase type δ) (enzyme, UniProt Q9NRZ5 1-378)
chain: MDLAGLLKSQFLCHLVFCYVFIASGLIINTIQLFTLLLWPINKQLFRKINCRLSYCISSQLVMLLEWWSGTECTIFTDPRAYLKYGKENAIVVLNHKFEIDFLCGWSLSERFGLLGGSKVLAKKELAYVPIIGWMWYFTEMVFCSRKWEQDRKTVATSLQHLRDYPEKYFFLIHCEGTRFTEKKHEISMQVARAKGLPRLKHHLLPRTKGFAITVRSLRNVVSAVYDCTLNFRNNENPTLLGVLNGKKYHADLYVRRIPLEDIPEDDDECSAWLHKLYQEKDAFQEEYYRTGTFPETPMVPPRRPWTLVNWLFWASLVLYPFFQFLVSMIRSGSSLTLASFILVFFVASVGVRWMIGVTEIDKGSAYGNSDSKQKLND
